Data as given in PubChem BioAssay AID1259254 (NCATS, 2017).
Shown is one part, drawn at random, of about 59,000 reagents. About 1,550 of all reagents (2.6%) count as active. 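G2 share is only a proxy for re-replication; each gene was hit by three separate siRNAs, and active genes were retested.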 Reagents against one gene are numbered here. Further read-outs or replicates are left out here. Reagent sequences are not shown. Not stated in the record: the amount of reagent.

Assay: 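Genome-wide screen for genes that prevent DNA re-replication in cancer cells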 (primary screen)
Cells: human HCT116 colorectal cancer cells
Knock-down reagent: single siRNA against human genes
Time to read-out: 3 days
Detection: 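Imaged Hoechst DNA stain sorts each cell into a cycle phase by DNA amount; per plate, G2 fraction set to 0% for non-targeting and 100% for GMNN siRNA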
Reading the numbers: G2 robust z-score: higher = more G2 cells, more excess DNA replication
Hit rule: 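An siRNA counts as active if its G2 robust z-score lies at least 5 MADs above the screen median; here such calls match roughly 38% of GMNN control or more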

G2 robust z-score, by gene and reagent
P4HA1 (GeneID 5033): #1 0.602 inactive; #2 0.452 inactive; #3 -0.0545 inactive
PRDM16 (GeneID 63976): #1 -0.508 inactive; #2 3.1 inactive; #3 0.753 inactive; #4 1.89 inactive; #5 -0.948 inactive; #6 0.482 inactive
KCNS2 (GeneID 3788): #1 -0.306 inactive; #2 1.22 inactive; #3 1.29 inactive
SCOC (GeneID 60592): #1 0.205 inactive; #2 3.48 inactive; #3 0.67 inactive
CSNK2A1 (GeneID 1457): #1 0.0992 inactive; #2 -0.393 inactive; #3 -0.102 inactive
GPX8 (GeneID 493869): #1 -0.131 inactive; #2 0.269 inactive; #3 2.9 inactive
TUSC3 (GeneID 7991): #1 -0.482 inactive; #2 -1.05 inactive; #3 -1.04 inactive
CYTIP (GeneID 9595): #1 1.06 inactive; #2 0.699 inactive; #3 0.04 inactive
PAX2 (GeneID 5076): #1 3.5 inactive; #2 -0.994 inactive; #3 -0.336 inactive
TPBG (GeneID 7162): #1 8.16 active; #2 -0.876 inactive; #3 -0.703 inactive
LINC02898 (GeneID 400950): #1 0.807 inactive; #2 0.0306 inactive; #3 4.14 inactive
TRERF1 (GeneID 55809): #1 -1.16 inactive; #2 0.399 inactive; #3 0.812 inactive
FOXJ3 (GeneID 22887): #1 2.91 inactive; #2 0.29 inactive; #3 -1.26 inactive
LGALS7B (GeneID 653499): #1 -0.171 inactive; #2 -0.191 inactive; #3 -0.263 inactive
TBXT (GeneID 6862): #1 -0.269 inactive; #2 -1.03 inactive; #3 3.65 inactive
OR2T1 (GeneID 26696): #1 1.16 inactive; #2 2.57 inactive; #3 0.652 inactive
CEP170 (GeneID 9859): #1 -0.336 inactive; #2 0.516 inactive; #3 0.123 inactive
TNFRSF13B (GeneID 23495): #1 -0.597 inactive; #2 -0.0264 inactive; #3 -1.44 inactive
PTGFR (GeneID 5737): #1 -0.757 inactive; #2 2.81 inactive; #3 0.772 inactive
UBQLN4 (GeneID 56893): #1 0.423 inactive; #2 0.19 inactive; #3 4.48 inactive
PLA2G4E (GeneID 123745): #1 0.346 inactive; #2 -0.706 inactive; #3 0.406 inactive
NPY (GeneID 4852): #1 -0.458 inactive; #2 1.08 inactive; #3 -0.351 inactive

Hits (from the list above):
G2 robust z-score, by gene and reagent
TPBG (GeneID 7162): #1 8.16 active
